Results from patent US7495021B2, “Benzothiazole- and benzooxazole-4,7-dione, derivatives and their use as cdc25 phosphate inhibitors” (Societe de Conseils de Recherches et d'Applications …, priority 2001, dated 2009).
Structures can show the parent of a compound that is named as a salt. Some results were stated once for a whole list of compounds, not compound by compound.

Columns and labels:
[1] = target: T1, CD45 enzyme (cytoplasmic domain of purified human CD45) (Homo sapiens, UniProt P08575); assay: Measurement of the tyrosine phosphatase activity of the CD45 enzyme (pp60c-src peptide, malachite green type reagent); type: biochemical; details: substrate pp60c-src 185 μM, 1 hour at 30° C.; read-out: CI50 on the tyrosine phosphatase activity of the enzyme CD45
T1 construct: cytoplasmic domain of purified human CD45 enzyme (amino acids 584 to 1281, molecular weight=95 kDa); purchased BIOMOL, Plymouth Meeting, Pa., USA SE-135; host or cells: yeast expression system
T1 sequence (P08575 609-1306): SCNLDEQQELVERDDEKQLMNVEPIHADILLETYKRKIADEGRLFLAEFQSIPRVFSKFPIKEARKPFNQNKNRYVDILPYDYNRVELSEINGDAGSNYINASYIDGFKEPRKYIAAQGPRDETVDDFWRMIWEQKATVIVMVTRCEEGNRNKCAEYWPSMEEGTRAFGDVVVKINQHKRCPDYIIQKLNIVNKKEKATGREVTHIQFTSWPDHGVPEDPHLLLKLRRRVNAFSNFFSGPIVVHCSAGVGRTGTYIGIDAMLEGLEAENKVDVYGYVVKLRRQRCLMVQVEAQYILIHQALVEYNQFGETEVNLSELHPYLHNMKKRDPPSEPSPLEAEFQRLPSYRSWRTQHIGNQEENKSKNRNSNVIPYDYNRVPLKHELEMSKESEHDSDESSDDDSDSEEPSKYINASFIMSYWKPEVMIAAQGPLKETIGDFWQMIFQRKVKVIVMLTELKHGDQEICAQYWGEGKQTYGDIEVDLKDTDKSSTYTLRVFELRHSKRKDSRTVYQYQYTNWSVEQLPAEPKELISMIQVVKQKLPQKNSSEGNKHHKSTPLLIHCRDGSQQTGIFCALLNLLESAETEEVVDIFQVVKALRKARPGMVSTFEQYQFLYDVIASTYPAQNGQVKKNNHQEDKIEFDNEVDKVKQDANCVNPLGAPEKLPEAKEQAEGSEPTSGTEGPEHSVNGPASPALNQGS

[2] = test system: DU145 (human prostate cancer cells); assay: Antiproliferative activity, WST1 colorimetric test, DU145; type: cell-based; details: 96 hours treatment, up to 10 μM; read-out: Cl50 on the cell proliferation of the lines DU-145
MBP-Cdc25C protein = target: T2, MBP-Cdc25C protein (Homo sapiens, UniProt P30307); assay: Measurement of the phosphatase activity of the purified Cdc25C recombinant enzyme (OMFP dephosphorylation, fluorescence); type: biochemical; details: OMFP 500 μM, 4 hours at 30° C.; read-out: CI50 on the phosphatase activity of the purified recombinant enzyme Cdc25-C
T2 construct: made in house
T2 sequence (P30307 1-473): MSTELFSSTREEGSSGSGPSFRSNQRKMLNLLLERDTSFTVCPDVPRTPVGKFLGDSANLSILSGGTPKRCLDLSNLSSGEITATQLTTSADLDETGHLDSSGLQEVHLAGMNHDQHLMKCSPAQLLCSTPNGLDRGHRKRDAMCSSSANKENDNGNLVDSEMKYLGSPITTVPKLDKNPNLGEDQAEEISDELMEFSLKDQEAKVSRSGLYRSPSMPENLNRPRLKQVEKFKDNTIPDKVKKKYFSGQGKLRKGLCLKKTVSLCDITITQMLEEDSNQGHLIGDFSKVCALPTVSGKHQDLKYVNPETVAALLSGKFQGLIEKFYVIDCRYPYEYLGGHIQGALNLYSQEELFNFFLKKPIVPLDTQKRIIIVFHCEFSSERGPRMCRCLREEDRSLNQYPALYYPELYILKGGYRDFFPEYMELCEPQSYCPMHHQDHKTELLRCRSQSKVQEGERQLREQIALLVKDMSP

[3] = test system: Mia-PaCa2 (human pancreas cancer cells); assay: Antiproliferative activity, WST1 colorimetric test, Mia-PaCa2; type: cell-based; details: 96 hours treatment, up to 10 μM; read-out: CI50 on the cell proliferation of the lines Mia-Paca2

Row | Compound | IC50 [1] [µM] | IC50 [2] [µM] | IC50 (MBP-Cdc25C protein) [µM] | IC50 [3] [µM]
1 | Cc1nc2c(s1)C(=O)C=C(NCCN1CCOCC1)C2=O [Example 1, 2-methyl-5-{[2-(4-morpholinyl)ethyl]amino}-1,3-benzothiazole-4,7-dione] | ≤ 10 |  |  | 
2 | Cc1nc2c(s1)C(=O)C=C(NCCN(C)C)C2=O [Example 2, 5-{[2-(dimethylamino)ethyl]amino}-2-methyl-1,3-benzothiazole-4,7-dione hydrochloride] | ≤ 10 |  |  | 
3 | Cc1nc2c(s1)C(=O)C=C(NCCCCCCN(C)C)C2=O [Example 3, 5-{[6-(dimethylamino)hexyl]amino}-2-methyl-1,3-benzothiazole-4,7-dione] | ≤ 10 |  |  | 
4 | Cc1nc2c(s1)C(=O)C=C(NCC(C)(C)CN(C)C)C2=O [Example 4, 5-{[3-(dimethylamino)-2,2-dimethylpropyl]amino}-2-methyl-1,3-benzothiazole-4,7-dione] | ≤ 10 |  |  | 
5 | Cc1nc2c(s1)C(=O)C=C(NCCCN1CCN(C)CC1)C2=O [Example 5, 2-methyl-5-{[3-(4-methyl-1-piperazinyl)propyl]amino}-1,3-benzothiazole-4,7-dione] | ≤ 10 |  |  | 
6 | Mixture of 5-{[6-(dimethylamino)hexyl]amino}-2-ethyl-1,3-benzoxazole-4,7-dione and 6-{[6-(dimethylamino)hexyl]amino}-2-ethyl-1,3-benzoxazole-4,7-dione [Example 48] |  | ≤ 10 | ≤ 10 | ≤ 10
7 | Mixture of 5-{[6-(dimethylamino)hexyl]amino}-2-phenyl-1,3-benzoxazole-4,7-dione and 6-{[6-(dimethylamino)hexyl]amino}-2-phenyl-1,3-benzoxazole-4,7-dione [Example 58] |  | ≤ 10 | ≤ 10 | ≤ 10
8 | tert-butyl 2-[(2-ethyl-4,7-dioxo-4,7-dihydro-1,3-benzoxazol-5-yl)(methyl)amino]ethylcarbamate or tert-butyl 2-[(2-ethyl-4,7-dioxo-4,7-dihydro-1,3-benzoxazol-6-yl)(methyl)amino]ethylcarbamate [Example 41] |  | ≤ 10 | ≤ 10 | ≤ 10
9 | tert-butyl 2-[(2-ethyl-4,7-dioxo-4,7-dihydro-1,3-benzoxazol-5-yl)amino]ethylcarbamate or tert-butyl 2-[(2-ethyl-4,7-dioxo-4,7-dihydro-1,3-benzoxazol-6-yl)amino]ethylcarbamate [Example 42] |  | ≤ 10 | ≤ 10 | ≤ 10
